The list shows a part of the results.
How the values were obtained:
Assay in all cases: log2 fold change, soluble protein after heating vs DMSO (PISA); higher = thermal stabilisation; K562 lysate, 10 uM; active = over 0.2 and 3.5 SD of the protein, either way, in both replicates (recomputed)
erlotinib = compound: C#Cc1cccc(Nc2ncnc3cc(OCCOC)c(OCCOC)cc23)c1 [erlotinib]
Outline: (§1)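 Pellets of K562 cells were dounce-homogenised in PBS pH 7.4 with 1 mM MgCl2, and the crude extract was held at 1 mg/mL protein for a 30 min treatment with 10 μM compound. Aliquots were heated for 3 min over 48°C-58°C and pooled before NP-40 was added to 0.5% at 4°C. The supernatant from 21,000xg for 90 min was quantified by TMTpro 16plex LC-MS/MS with channel sums equalised. Values are reported from duplicates as log-two fold change in thermal stability relative to solvent controls.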

Protein sequences, listed by entry. Tags and fused reporters are not part of them. Lines headed by an entry give the natural chain unless they say otherwise; changes in a name come on top.
UniProt O95336: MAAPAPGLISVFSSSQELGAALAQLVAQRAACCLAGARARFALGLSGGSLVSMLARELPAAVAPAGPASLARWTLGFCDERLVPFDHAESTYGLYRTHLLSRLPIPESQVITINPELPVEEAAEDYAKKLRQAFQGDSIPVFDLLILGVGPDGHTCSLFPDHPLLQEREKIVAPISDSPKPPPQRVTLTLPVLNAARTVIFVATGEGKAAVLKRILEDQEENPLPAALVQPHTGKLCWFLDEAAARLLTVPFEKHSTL
UniProt Q92508: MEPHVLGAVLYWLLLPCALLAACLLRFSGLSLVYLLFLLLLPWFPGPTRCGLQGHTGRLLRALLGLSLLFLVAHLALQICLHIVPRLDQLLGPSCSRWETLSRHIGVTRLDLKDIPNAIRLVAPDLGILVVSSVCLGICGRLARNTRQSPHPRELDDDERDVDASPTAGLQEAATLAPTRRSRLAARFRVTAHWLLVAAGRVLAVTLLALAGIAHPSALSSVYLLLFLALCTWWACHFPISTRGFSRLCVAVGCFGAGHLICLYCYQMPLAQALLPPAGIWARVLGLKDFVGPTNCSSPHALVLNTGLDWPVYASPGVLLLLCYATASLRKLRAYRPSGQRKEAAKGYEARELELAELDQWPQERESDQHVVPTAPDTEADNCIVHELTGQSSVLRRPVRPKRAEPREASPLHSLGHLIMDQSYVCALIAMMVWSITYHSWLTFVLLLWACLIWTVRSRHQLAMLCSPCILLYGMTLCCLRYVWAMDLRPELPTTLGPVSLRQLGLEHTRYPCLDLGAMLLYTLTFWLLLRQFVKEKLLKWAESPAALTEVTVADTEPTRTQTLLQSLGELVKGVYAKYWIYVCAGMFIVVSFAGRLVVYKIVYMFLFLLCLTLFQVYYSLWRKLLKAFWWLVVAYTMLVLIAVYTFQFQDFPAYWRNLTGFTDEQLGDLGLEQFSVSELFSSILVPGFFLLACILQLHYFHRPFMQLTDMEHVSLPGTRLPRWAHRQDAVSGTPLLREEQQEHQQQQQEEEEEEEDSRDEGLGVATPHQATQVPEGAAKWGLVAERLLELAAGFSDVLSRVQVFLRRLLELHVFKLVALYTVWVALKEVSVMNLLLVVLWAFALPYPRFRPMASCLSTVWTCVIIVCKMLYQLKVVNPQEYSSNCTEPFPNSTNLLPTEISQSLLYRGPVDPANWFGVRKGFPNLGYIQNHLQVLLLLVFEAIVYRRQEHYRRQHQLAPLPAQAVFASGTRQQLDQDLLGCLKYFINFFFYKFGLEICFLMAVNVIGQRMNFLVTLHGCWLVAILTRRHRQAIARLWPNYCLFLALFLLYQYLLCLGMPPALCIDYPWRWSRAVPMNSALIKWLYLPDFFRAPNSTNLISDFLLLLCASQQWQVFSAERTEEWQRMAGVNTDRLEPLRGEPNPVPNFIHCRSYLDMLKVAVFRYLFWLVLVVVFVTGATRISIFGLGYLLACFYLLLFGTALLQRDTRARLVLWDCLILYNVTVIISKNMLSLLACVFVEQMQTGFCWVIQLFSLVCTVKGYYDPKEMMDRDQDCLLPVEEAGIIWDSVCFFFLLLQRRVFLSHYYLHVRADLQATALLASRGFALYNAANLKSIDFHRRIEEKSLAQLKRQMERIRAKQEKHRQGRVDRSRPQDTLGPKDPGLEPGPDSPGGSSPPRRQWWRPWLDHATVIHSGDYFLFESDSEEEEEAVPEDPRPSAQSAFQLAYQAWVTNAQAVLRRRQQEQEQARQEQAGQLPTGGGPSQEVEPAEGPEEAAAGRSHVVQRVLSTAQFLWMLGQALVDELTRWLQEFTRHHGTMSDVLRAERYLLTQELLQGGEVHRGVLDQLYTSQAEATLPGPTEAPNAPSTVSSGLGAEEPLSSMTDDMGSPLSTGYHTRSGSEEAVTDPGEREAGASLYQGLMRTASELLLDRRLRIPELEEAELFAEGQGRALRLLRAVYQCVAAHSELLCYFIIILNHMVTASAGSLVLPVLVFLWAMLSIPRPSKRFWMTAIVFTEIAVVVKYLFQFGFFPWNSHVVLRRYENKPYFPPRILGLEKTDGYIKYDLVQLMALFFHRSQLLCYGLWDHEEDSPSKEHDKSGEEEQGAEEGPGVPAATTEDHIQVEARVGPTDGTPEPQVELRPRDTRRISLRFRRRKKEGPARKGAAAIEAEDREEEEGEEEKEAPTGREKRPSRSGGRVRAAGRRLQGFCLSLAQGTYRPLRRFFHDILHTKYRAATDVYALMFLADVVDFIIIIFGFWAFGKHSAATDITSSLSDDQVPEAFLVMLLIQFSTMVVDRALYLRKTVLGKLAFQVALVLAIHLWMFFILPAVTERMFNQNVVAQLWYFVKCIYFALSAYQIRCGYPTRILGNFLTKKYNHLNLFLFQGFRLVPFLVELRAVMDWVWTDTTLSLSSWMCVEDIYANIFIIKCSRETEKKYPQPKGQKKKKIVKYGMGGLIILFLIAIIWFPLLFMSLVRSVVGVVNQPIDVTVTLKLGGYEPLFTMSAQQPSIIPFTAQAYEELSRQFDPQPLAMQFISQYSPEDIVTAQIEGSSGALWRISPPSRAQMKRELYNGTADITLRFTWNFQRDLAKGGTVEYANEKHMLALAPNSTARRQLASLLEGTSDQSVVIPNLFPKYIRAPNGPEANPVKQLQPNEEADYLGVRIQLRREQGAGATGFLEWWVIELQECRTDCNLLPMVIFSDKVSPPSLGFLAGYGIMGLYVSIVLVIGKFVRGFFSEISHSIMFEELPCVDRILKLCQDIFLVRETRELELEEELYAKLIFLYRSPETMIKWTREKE
UniProt Q5JRX3: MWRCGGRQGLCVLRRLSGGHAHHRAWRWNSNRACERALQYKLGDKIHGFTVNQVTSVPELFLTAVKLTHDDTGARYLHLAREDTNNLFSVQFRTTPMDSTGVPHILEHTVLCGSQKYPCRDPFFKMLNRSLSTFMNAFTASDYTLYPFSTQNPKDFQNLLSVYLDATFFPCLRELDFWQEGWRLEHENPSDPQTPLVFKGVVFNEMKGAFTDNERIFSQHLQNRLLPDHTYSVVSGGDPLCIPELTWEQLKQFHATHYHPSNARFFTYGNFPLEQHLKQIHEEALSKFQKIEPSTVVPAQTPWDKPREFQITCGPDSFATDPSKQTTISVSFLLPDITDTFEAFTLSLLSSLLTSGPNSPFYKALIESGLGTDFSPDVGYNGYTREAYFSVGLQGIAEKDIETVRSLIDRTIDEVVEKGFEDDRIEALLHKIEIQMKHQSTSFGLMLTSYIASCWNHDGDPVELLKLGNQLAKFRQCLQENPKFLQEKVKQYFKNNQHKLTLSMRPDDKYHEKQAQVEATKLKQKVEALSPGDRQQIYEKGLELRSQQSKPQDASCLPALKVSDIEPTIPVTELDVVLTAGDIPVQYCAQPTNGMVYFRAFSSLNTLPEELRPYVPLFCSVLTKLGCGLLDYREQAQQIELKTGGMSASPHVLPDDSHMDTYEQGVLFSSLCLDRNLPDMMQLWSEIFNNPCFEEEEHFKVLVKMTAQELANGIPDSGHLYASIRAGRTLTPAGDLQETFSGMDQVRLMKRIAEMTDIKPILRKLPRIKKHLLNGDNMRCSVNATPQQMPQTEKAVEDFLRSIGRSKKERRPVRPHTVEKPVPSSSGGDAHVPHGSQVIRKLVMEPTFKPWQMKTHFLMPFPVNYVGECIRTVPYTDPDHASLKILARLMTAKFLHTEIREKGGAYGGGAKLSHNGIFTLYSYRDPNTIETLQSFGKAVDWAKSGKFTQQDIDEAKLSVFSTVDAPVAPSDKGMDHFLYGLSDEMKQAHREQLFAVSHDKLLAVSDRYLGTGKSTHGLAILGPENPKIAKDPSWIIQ
UniProt Q9Y263: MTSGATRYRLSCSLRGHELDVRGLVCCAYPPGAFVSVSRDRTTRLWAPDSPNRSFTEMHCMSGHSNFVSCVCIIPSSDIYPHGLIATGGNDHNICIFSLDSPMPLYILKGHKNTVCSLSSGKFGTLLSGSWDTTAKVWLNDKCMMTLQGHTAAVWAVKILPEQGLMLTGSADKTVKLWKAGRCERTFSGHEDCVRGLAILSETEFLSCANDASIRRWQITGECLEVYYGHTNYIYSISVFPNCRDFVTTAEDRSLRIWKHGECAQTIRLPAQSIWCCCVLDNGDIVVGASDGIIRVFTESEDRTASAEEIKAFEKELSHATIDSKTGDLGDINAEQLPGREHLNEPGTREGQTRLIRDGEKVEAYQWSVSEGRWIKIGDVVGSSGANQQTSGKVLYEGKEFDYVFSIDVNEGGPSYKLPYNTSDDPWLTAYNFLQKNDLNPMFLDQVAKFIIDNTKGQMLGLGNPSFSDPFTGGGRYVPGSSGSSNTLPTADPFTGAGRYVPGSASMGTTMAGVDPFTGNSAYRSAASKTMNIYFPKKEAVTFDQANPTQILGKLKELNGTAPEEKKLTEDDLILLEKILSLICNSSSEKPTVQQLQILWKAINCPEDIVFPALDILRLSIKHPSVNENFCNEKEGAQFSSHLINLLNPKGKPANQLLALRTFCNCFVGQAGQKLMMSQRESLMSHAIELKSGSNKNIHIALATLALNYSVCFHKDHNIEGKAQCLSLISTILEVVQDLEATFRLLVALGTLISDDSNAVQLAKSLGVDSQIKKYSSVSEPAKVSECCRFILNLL
UniProt Q8TCD6: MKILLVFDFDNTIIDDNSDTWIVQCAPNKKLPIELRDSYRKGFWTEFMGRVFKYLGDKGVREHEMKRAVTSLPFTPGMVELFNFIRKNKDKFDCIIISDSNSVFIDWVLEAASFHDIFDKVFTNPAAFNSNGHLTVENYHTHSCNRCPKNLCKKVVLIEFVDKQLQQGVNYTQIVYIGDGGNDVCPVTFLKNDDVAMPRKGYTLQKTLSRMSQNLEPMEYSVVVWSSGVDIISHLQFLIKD
UniProt Q8WXW3: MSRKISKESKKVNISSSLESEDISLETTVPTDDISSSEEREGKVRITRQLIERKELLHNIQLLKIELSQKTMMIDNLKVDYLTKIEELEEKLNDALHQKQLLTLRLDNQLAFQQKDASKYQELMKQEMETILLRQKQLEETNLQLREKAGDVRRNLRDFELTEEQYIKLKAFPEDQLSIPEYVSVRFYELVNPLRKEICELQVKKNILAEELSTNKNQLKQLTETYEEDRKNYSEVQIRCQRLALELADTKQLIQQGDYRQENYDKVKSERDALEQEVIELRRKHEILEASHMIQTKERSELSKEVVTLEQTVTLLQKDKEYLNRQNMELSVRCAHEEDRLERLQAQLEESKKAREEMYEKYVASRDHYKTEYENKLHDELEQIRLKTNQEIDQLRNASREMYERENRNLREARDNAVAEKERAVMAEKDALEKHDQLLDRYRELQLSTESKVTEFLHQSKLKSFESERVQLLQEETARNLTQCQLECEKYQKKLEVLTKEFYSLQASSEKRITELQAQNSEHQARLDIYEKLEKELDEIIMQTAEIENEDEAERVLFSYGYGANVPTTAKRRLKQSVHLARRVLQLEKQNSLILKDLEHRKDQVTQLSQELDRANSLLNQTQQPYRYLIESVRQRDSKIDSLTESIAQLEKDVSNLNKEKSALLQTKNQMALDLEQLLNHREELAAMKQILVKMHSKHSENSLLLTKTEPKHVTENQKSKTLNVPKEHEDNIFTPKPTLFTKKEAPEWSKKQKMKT
UniProt Q9UBF8: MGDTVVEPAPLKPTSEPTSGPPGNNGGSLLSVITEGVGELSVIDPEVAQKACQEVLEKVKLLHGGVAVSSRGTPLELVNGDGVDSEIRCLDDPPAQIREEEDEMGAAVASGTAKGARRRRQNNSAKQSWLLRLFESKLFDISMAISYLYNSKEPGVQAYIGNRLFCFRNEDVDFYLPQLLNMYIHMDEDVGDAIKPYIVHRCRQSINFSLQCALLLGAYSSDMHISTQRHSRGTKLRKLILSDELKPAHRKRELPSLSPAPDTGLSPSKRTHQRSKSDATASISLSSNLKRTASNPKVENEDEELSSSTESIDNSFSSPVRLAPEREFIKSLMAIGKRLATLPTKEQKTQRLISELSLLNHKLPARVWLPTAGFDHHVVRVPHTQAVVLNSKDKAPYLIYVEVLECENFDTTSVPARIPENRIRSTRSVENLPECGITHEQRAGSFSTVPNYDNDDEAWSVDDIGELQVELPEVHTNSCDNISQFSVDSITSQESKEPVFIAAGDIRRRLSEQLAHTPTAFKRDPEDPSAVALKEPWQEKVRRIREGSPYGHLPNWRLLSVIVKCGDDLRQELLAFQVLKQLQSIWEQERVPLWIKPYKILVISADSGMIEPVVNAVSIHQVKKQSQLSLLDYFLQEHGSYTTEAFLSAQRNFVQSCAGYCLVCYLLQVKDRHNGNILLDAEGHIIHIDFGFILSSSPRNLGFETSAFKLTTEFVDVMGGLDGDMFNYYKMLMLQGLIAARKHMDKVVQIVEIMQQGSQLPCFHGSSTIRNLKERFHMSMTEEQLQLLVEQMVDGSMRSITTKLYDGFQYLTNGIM

[1] = compound: C/C(=N\NC(=O)C1=CC(=CC=C1)S(=O)(=O)N2CCOCC2)/C3=C(C=CC(=C3)Cl)O
Outline: as §1

[2] = compound: C1=CC(=CC=C1C2=NC3=C(N2)C=C(C=C3)C(=O)N)OC4=CC=C(C=C4)Cl
Outline: as §1

[3] = compound: C1=CC2=C(C=CC(=C2)/C=C\3/C(=O)NC(=NCC4=CC=CS4)S3)N=C1
Outline: as §1

[4] = compound: C1=CC2=NC=CN=C2C=C1/C=C/3\C(=O)NC(=O)S3
Outline: as §1

[5] = compound: C1=CC=C(C=C1)C2=NC(=C(N2)C3=CC=NC=C3)C4=CC(=C(C=C4)Cl)O
Outline: as §1

[6] = compound: C1=CC=C2C(=C1)C3=NNC4=CC=CC(=C43)C2=O
Outline: as §1

[7] = compound: C1CCN(C1)C(=O)NC2=CC=CC(=C2)NC3=NC=C(C(=N3)NCCC4=CN=CN4)Br
Outline: as §1

[8] = compound: C1CN(CCC1(CC2=CC=C(C=C2)Cl)N)C3=NC=NC4=C3C=CN4
Outline: as §1

IRAK-1-4 Inhibitor I = compound: C1COCCN1CCN2C3=CC=CC=C3N=C2NC(=O)C4=CC(=CC=C4)[N+](=O)[O-] [IRAK-1-4 Inhibitor I]
Outline: as §1

ibrutinib = compound: C=CC(=O)N1CCC[C@@H](n2nc(-c3ccc(Oc4ccccc4)cc3)c3c(N)ncnc32)C1 [ibrutinib]
Outline: as §1

[9] = compound: CC(=O)c1cnc2ccc(-c3cc(Cl)c(O)c(Cl)c3)nc2c1N[C@H]1CC[C@H](CN(C)C)CC1
Outline: as §1

ralimetinib = compound: CC(C)(C)Cn1c(N)nc2ccc(-c3[nH]c(C(C)(C)C)nc3-c3ccc(F)cc3)nc21 [ralimetinib]
Outline: as §1

[10] = compound: CC(C)(O)CC(=O)NCCn1ccc2ncnc(Nc3ccc(Oc4cccc(C(F)(F)F)c4)c(Cl)c3)c21
Outline: as §1

[11] = compound: CC(C)C1=C2N=C(C=C(N2N=C1)NCC3=CC=CC=C3)NCCCCCCN
Outline: as §1

[12] = compound: CC1=C(C(CC(=O)N1)C2=CC=C(C=C2)C(F)(F)F)C(=O)NC3=C(C=C4C(=C3)C=NN4)F
Outline: as §1

[13] = compound: CC1=C(C2=C(C=C1)C(=O)C3=CC=CC=C3N2CCCN)C
Outline: as §1

[14] = compound: CC1=C(C=C(C=C1)NC(=O)C2=CC(=CC=C2)C(C)(C)C#N)NC3=CC4=C(C=C3)N=CN(C4=O)C
Outline: as §1

[15] = compound: CC1=C(C=C(C=C1)NC(=O)C2=CC(=CC=C2)N(C)C)NC(=O)C3=CC=C(C=C3)O
Outline: as §1

[16] = compound: CC1=CC=C(C=C1)SC2=C3C=C(SC3=CN=C2)C(=O)N
Outline: as §1

Measured: log2 fold change

PGLS (UniProt O95336)
inactive: erlotinib -0.019 | [1] -0.026 | [2] -0.08 | [3] -0.039 | [4] -0.039 | [5] -0.077 | [6] -0.04 | [7] -0.112 | [8] 0.025 | IRAK-1-4 Inhibitor I -0.043 | ibrutinib 0.012 | [9] -0.08 | ralimetinib 0.06 | [10] 0.008 | [11] 0.001 | [12] -0.012 | [13] -0.075 | [14] 0.038 | [15] -0.003 | [16] 0.077

PGS1 (UniProt Q32NB8)
inactive: erlotinib -0.019 | [1] -0.265 | [2] -0.162 | [3] 0.222 | [4] 0.131 | [5] -0.016 | [6] -0.121 | [7] -0.066 | [8] 0.071 | IRAK-1-4 Inhibitor I 0.038 | ibrutinib 0.022 | [9] 0.075 | ralimetinib -0.002 | [10] -0.09 | [11] 0.071 | [12] -0.142 | [13] 0.03 | [14] -0.071 | [15] 0.043 | [16] 0.164

PIK3CA (UniProt P42336)
inactive: erlotinib -0.015 | [1] 0.066 | [2] 0.005 | [3] 0.021 | [4] 0.019 | [5] -0.086 | [6] -0.037 | [7] 0.013 | [8] -0.013 | IRAK-1-4 Inhibitor I -0.101 | ibrutinib -0.008 | [9] 0.029 | ralimetinib 0.014 | [10] 0.073 | [11] -0.018 | [12] 0.026 | [13] 0.194 | [14] -0.042 | [15] 0.024 | [16] -0.018

PIEZO1 (UniProt Q92508)
inactive: erlotinib -0.055 | [1] 0.053 | [2] -0.001 | [3] 0.016 | [4] 0.002 | [5] 0.001 | [6] -0.029 | [7] -0.026 | [8] 0.047 | IRAK-1-4 Inhibitor I 0.016 | ibrutinib 0.007 | [9] 0.017 | ralimetinib 0.034 | [10] -0.053 | [11] -0.017 | [12] -0.043 | [13] -0.037 | [14] 0.016 | [15] -0.001 | [16] -0.012

PHF21A isoform 3 (UniProt Q96BD5)
inactive: erlotinib 0.047 | [1] -0.063 | [2] 0.039 | [3] 0.116 | [4] -0.091 | [5] 0.223 | [6] 0.061 | [7] 0.018 | [8] -0.014 | IRAK-1-4 Inhibitor I 0.021 | ibrutinib -0.058 | [9] 0.183 | ralimetinib -0.092 | [10] -0.013 | [11] -0.01 | [12] -0.021 | [13] -0.057 | [14] -0.043 | [15] -0.139 | [16] -0.154

PITRM1 isoform 2 (UniProt Q5JRX3)
inactive: erlotinib -0.035 | [1] 0.011 | [2] 0.077 | [3] 0.04 | [4] -0.037 | [5] -0.025 | [6] 0.009 | [7] 0.016 | [8] 0.024 | IRAK-1-4 Inhibitor I -0.015 | ibrutinib 0.007 | [9] -0.004 | ralimetinib 0.134 | [10] -0.009 | [11] -0.019 | [12] 0.001 | [13] -0.021 | [14] -0.001 | [15] -0.005 | [16] 0.012

PLBD2 (UniProt Q8NHP8)
inactive: erlotinib -0.022 | [1] 0.024 | [2] 0.001 | [3] -0.058 | [4] -0.036 | [5] 0.021 | [6] 0.028 | [7] 0.045 | [8] 0 | IRAK-1-4 Inhibitor I 0.007 | ibrutinib 0.036 | [9] -0.043 | ralimetinib 0.022 | [10] -0.044 | [11] 0.413 | [12] -0.025 | [13] -0.004 | [14] -0.033 | [15] -0.004 | [16] 0.005

PIK3R2 (UniProt O00459)
inactive: erlotinib -0.022 | [1] -0.02 | [2] -0.008 | [3] 0.097 | [4] 0.251 | [5] -0.09 | [6] 0.047 | [7] 0.068 | [8] -0.059 | IRAK-1-4 Inhibitor I -0.01 | ibrutinib -0.041 | [9] 0.242 | ralimetinib 0.11 | [10] 0.029 | [11] -0.028 | [12] 0.008 | [13] 0.01 | [14] 0 | [15] 0.07 | [16] 0.019

PIP4K2C (UniProt Q8TBX8)
inactive: erlotinib 0.104 | [1] -0.289 | [2] 0.033 | [3] 0.004 | [5] 0.137 | [6] 0.127 | [7] 0.231 | [8] -0.055 | IRAK-1-4 Inhibitor I -0.005 | ibrutinib 0.012 | [9] 0.277 | ralimetinib 0.039 | [10] -0.055 | [11] -0.055 | [12] -0.047 | [13] -0.027 | [14] 0.03 | [15] -0.027 | [16] -0.031
active: [4] 0.496

PLAA (UniProt Q9Y263)
inactive: erlotinib -0.022 | [1] 0.012 | [2] 0.025 | [3] 0.005 | [4] -0.002 | [5] -0.004 | [6] 0.006 | [7] -0.008 | [8] -0.007 | IRAK-1-4 Inhibitor I -0.008 | ibrutinib 0.01 | [9] 0.008 | ralimetinib 0.012 | [10] -0.018 | [11] -0.006 | [12] 0.031 | [13] 0.009 | [14] 0.017 | [15] 0.016 | [16] 0.012

PHF3 (UniProt Q92576)
inactive: erlotinib -0.016 | [1] -0.067 | [2] -0.001 | [3] 0.024 | [4] -0.058 | [5] -0.037 | [6] 0.013 | [7] 0.003 | [8] 0.032 | IRAK-1-4 Inhibitor I 0.031 | ibrutinib 0.007 | [9] 0.011 | ralimetinib -0.005 | [10] -0.035 | [11] -0.006 | [12] 0.054 | [13] -0.031 | [14] -0.005 | [15] 0 | [16] -0.012

PHOSPHO2 (UniProt Q8TCD6)
inactive: erlotinib -0.018 | [1] -0.225 | [2] 0.046 | [3] -0.032 | [4] -0.027 | [5] -0.002 | [6] 0.072 | [7] 0.224 | [8] -0.16 | IRAK-1-4 Inhibitor I -0.014 | ibrutinib -0.01 | [9] 0.039 | ralimetinib 0.003 | [10] 0.035 | [11] 0.012 | [12] -0.017 | [13] 0.018 | [14] 0.006 | [15] 0.048 | [16] 0.056

PIBF1 (UniProt Q8WXW3)
inactive: erlotinib -0.042 | [1] 0.035 | [2] -0.057 | [3] -0.094 | [4] 0.041 | [5] 0.016 | [6] 0.002 | [7] -0.002 | [8] -0.037 | IRAK-1-4 Inhibitor I -0.011 | ibrutinib -0.045 | [9] -0.057 | ralimetinib -0.005 | [10] 0.009 | [11] 0.003 | [12] 0.018 | [13] 0.019 | [14] -0.026 | [15] 0.058 | [16] 0.003

PICALM (UniProt Q13492)
inactive: erlotinib -0.019 | [1] -0.035 | [2] 0.02 | [3] -0.021 | [4] 0.01 | [5] -0.06 | [6] -0.014 | [7] -0.016 | [8] 0.001 | IRAK-1-4 Inhibitor I 0.026 | ibrutinib -0.023 | [9] 0.011 | ralimetinib -0.025 | [10] -0.039 | [11] -0.004 | [12] -0.018 | [13] 0.004 | [14] 0.021 | [15] -0.004 | [16] -0.005

PLBD1 (UniProt Q6P4A8)
inactive: erlotinib 0.006 | [1] -0.015 | [2] 0.043 | [3] 0.016 | [4] 0.03 | [5] 0.028 | [6] -0.058 | [7] 0.019 | [8] 0.067 | IRAK-1-4 Inhibitor I -0.015 | ibrutinib 0.065 | [9] -0.043 | ralimetinib 0.007 | [10] 0.016 | [11] -0.033 | [12] -0.017 | [13] -0.033 | [14] 0.019 | [15] -0.052 | [16] 0.006

PI4KB (UniProt Q9UBF8)
inactive: erlotinib 0.017 | [1] -0.108 | [2] -0.011 | [3] 0.038 | [4] 0.173 | [5] 0.011 | [6] 0.193 | [7] 0.01 | [8] -0.065 | IRAK-1-4 Inhibitor I -0.003 | ibrutinib -0.044 | [9] 0.208 | ralimetinib 0.021 | [10] -0.021 | [11] -0.004 | [12] -0.015 | [13] -0.018 | [14] 0.022 | [15] 0 | [16] 0.012

Pulled one by one from the entries so far (two):
PLBD2 (UniProt Q8NHP8)
inactive: erlotinib -0.022 | [1] 0.024 | [2] 0.001 | [3] -0.058 | [4] -0.036 | [5] 0.021 | [6] 0.028 | [7] 0.045 | [8] 0 | IRAK-1-4 Inhibitor I 0.007 | ibrutinib 0.036 | [9] -0.043 | ralimetinib 0.022 | [10] -0.044 | [11] 0.413 | [12] -0.025 | [13] -0.004 | [14] -0.033 | [15] -0.004 | [16] 0.005

PI4KB (UniProt Q9UBF8)
inactive: erlotinib 0.017 | [1] -0.108 | [2] -0.011 | [3] 0.038 | [4] 0.173 | [5] 0.011 | [6] 0.193 | [7] 0.01 | [8] -0.065 | IRAK-1-4 Inhibitor I -0.003 | ibrutinib -0.044 | [9] 0.208 | ralimetinib 0.021 | [10] -0.021 | [11] -0.004 | [12] -0.015 | [13] -0.018 | [14] 0.022 | [15] 0 | [16] 0.012

Source: the supplement of paper PMC10849652
